# Laboratory results: PubChem BioAssay AID493014 (National Center for Advancing Translational Sciences (NCATS), 2011)
# This is one part of the list. Shown are side measurements of this screen, not its main read-out; they come without a call. Compounds called inactive in the main read-out are mostly missing here. Words in brackets tell the shape of the fitted curve; partial curves, single points and poor fits give uncertain potencies.
# Test: qHTS Assay to Find Inhibitors of Chronic Active B-Cell Receptor Signaling
# Settings: ABC-DLBCL IkBa-CBG/CBR reporter, luminescence ratio (green luciferase fused to IkBa over red control in TMD8 lymphoma cells), 4 h
# In short: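 TMD8 human ABC-DLBCL cells with doxycycline-inducible IκBα–green luciferase fusion and unfused red luciferase, in 0.5% FBS medium; compounds up to 46 uM, 4 h at 37C. Green/red luminescence ratio, filter-overlap corrected, fitted to concentration-response curves.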
# [1] = measured here: CBR red luminescence, cell number
# [2] = measured here: IkBa-CBG green luminescence
SMILES,AC50 [1],AC50 [2]
CC(C)(C)c1ccc(OCCC(=O)OCC(=O)Nc2cccnc2Cl)cc1,"18.4 µM [falling, single point]",
COc1ccc(-c2cc(-c3ccc(Cl)cc3)n[nH]2)c(O)c1,"10 µM [falling, partial curve, poor fit]",
Cc1ccc(S(=O)(=O)Nc2ccc(-c3ccc4nncn4n3)cc2)cc1,"29.1 µM [rising, partial curve, poor fit]",
Cc1ccc(O)c(-c2cc3ccccc3[nH]2)c1,"29.1 µM [rising, single point]",
CCOc1ccccc1N1CCN(C(=O)c2cc(-c3cccnc3)nc3c(Cl)cccc23)CC1,"1 µM [rising, full curve, poor fit]",
COc1ccc(NC(=O)c2c(Nc3ccccc3)sc(C(=O)c3ccc(F)cc3)c2N)cc1,"29.1 µM [falling, single point]",
COC(=O)Cn1nnc(-c2cccc(OC)c2)n1,"25.1 µM [rising, single point]",
Cc1nn2c3ccccc3n(CC(=O)c3cccs3)c2nc1=O,"35.5 µM [falling, single point]",
Cc1nc(NCc2ccccc2)c2cc[nH]c2n1,"4.47 µM [rising, full curve, poor fit]",
CC(/C=C/c1ccccc1)=N\Nc1nc(C)cc(C)n1,"29.1 µM [rising, single point]",
COc1ccc([C@]23Cc4cc(OC)c(OC)cc4C(O2)c2c(c4ccccc4oc2=O)O3)cc1,"0.891 µM [falling, full curve, poor fit]",
Cc1ccc2c(c1)NC(=O)c1cccnc1N2,"5.01 µM [falling, full curve, poor fit]",
Cc1ccc(NC(=S)C2=C(O)c3ccccc3N(C)S2(=O)=O)cc1,"20.6 µM [falling, partial curve, poor fit]",
COc1ccc(OCC(=O)Nc2ccc(C)c(S(=O)(=O)N(C)C)c2)cc1,"22.4 µM [rising, single point]",
Cc1cc(-c2ccc(S(=O)(=O)Nc3ccc(Cl)cc3)cc2)on1,"25.1 µM [falling, single point]",
Cc1[nH]c2ccc(-c3nnc(SCC(=O)c4ccccc4F)o3)cc2c1C,"15.8 µM [rising, single point]",
CCc1nnc(NC(=O)CSc2nc3cccnc3n2C2CCCCC2)s1,"20.6 µM [falling, partial curve, poor fit]",
O=C(c1sccc1-n1cccc1)N1CCCC1,"0.146 µM [falling, full curve, poor fit]",
Cc1cc(C)cc(NC(=S)NCC2CCN(C(C)c3ccccc3)C2)c1 (configuration not stated),"35.5 µM [falling, single point]",
COc1ccc(C(c2sc3nc(C)nn3c2O)N2CCC3(CC2)OCCO3)cc1 (configuration not stated),"35.5 µM [rising, partial curve, poor fit]",
O=C(CCC(=O)N(CC(=O)NC1CCCCC1)c1ccc(F)cc1)Nc1ccccn1,"8.91 µM [falling, partial curve]",

# Part of the list above, set out differently:
SMILES	AC50 [1]	AC50 [2]
CC(C)(C)c1ccc(OCCC(=O)OCC(=O)Nc2cccnc2Cl)cc1	18.4 µM [falling, single point]	
Cc1ccc(O)c(-c2cc3ccccc3[nH]2)c1	29.1 µM [rising, single point]	
CCOc1ccccc1N1CCN(C(=O)c2cc(-c3cccnc3)nc3c(Cl)cccc23)CC1	1 µM [rising, full curve, poor fit]	
COc1ccc(NC(=O)c2c(Nc3ccccc3)sc(C(=O)c3ccc(F)cc3)c2N)cc1	29.1 µM [falling, single point]	
Cc1nn2c3ccccc3n(CC(=O)c3cccs3)c2nc1=O	35.5 µM [falling, single point]	
CC(/C=C/c1ccccc1)=N\Nc1nc(C)cc(C)n1	29.1 µM [rising, single point]	
Cc1ccc2c(c1)NC(=O)c1cccnc1N2	5.01 µM [falling, full curve, poor fit]	
Cc1cc(-c2ccc(S(=O)(=O)Nc3ccc(Cl)cc3)cc2)on1	25.1 µM [falling, single point]	
Cc1[nH]c2ccc(-c3nnc(SCC(=O)c4ccccc4F)o3)cc2c1C	15.8 µM [rising, single point]	
O=C(c1sccc1-n1cccc1)N1CCCC1	0.146 µM [falling, full curve, poor fit]	
COc1ccc(C(c2sc3nc(C)nn3c2O)N2CCC3(CC2)OCCO3)cc1 (configuration not stated)	35.5 µM [rising, partial curve, poor fit]	

# Next compounds:

SMILES,AC50 [1],AC50 [2]
COc1ccc(N(C=O)C(=S)SC)cc1,"20 µM [falling, single point]",
CC(=O)N(c1ccccc1)c1c(F)c(F)c(F)c(F)c1F,"18.4 µM [falling, single point]",
CC(=O)Oc1cccc(N2C(=O)C3C4C=CC(CC4)C3C2=O)c1 (configuration not stated),"0.501 µM [rising, full curve, poor fit]",
Cn1cc(C(=O)O)c(-c2ccc3c(c2)OCCCO3)n1,"10 µM [rising, partial curve, poor fit]",
O=C(COc1ccc2ccccc2c1)Nc1ccc(Br)cc1C(=O)O,"5.62 µM [falling, partial curve]",
O=C(NCCCCNC(=O)c1cccnc1Cl)c1cccnc1Cl,"2.24 µM [rising, full curve, poor fit]",
O=C1CNC(=O)N1c1ccc(Cl)cc1,"0.0891 µM [rising, full curve, poor fit]",
O=C(CC1C(=O)NCCN1Cc1ccc(F)cc1Cl)NC1CCCCCCC1 (configuration not stated),"35.5 µM [falling, partial curve, poor fit]",
Cc1ccc(C(=O)Nc2ccc3c4c(cccc24)CC3)cc1[N+](=O)[O-],"2.59 µM [rising, full curve]",
COc1ccc(NC(=O)Nc2cnccn2)cc1,"35.5 µM [rising, single point]",
COc1ccc(C(=O)Nc2cccc(OC)c2)cc1,"11.2 µM [falling, partial curve]",
C[C@@]12C(=O)Nc3cc(Cl)ccc3C(=O)N1[C@H]1c3cc(Br)ccc3OC[C@@H]1[C@@H]2c1ccccc1,"4.11 µM [falling, full curve]",
NC(=O)c1ccccc1NC(=O)c1ccccc1Cl,"35.5 µM [rising, single point]",
O=[N+]([O-])c1ccc2c(c1)C(O)n1nc(-c3ccc(Cl)cc3Cl)nc1S2 (configuration not stated),"0.651 µM [rising, full curve]",
O=C(/C=C/c1ccc(Cl)cc1)NCCc1ccccc1,"4.61 µM [rising, partial curve]",
O=S(=O)(NC1CCCCC1Oc1ccccc1)c1ccc(Cl)cc1 (configuration not stated),"5.8 µM [rising, partial curve, poor fit]",
COc1ccc(C2CC(=O)Oc3cc(OC)c(OC)c(OC)c32)cc1 (configuration not stated),"29.1 µM [rising, single point]","16.4 µM [falling, partial curve]"
O=C(Nc1ccc(Cl)cc1)[C@@H]1[C@@H]2C(=O)N(c3ccc(Cl)cc3)C(=O)[C@@H]2[C@H]2C=CC=NN21,"9.2 µM [falling, partial curve, poor fit]",
CC1=NN(c2ccccc2)C(=O)C1C(=O)c1cc([N+](=O)[O-])cc([N+](=O)[O-])c1 (configuration not stated),,"14.1 µM [rising, partial curve, poor fit]"
CCOC(=O)c1ccc(Nc2c(-c3ccc(OC)cc3)nc3nc[nH]n23)cc1,"12.6 µM [falling, partial curve]",
